Source: patent US20240360148A1 (SUVALENT THERAPEUTICS, INC., priority 2021, published 2024)
For at least one compound, name, drawing or mass did not settle the structure.

Sequences of proteins named here, by UniProt entry; tags and fusion partners are left off. A change or cut given only in a name is not applied to a line headed by its entry.
UniProt Q9UBE0: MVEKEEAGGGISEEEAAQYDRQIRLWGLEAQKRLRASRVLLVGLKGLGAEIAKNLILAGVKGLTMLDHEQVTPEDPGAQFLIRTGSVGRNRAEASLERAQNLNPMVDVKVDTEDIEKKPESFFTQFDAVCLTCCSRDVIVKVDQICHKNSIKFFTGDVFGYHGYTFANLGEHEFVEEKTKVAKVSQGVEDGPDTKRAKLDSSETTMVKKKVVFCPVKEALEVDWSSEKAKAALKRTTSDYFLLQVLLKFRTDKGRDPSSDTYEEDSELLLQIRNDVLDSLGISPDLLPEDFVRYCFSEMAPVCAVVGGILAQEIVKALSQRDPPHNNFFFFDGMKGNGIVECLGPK
UniProt Q9UBT2: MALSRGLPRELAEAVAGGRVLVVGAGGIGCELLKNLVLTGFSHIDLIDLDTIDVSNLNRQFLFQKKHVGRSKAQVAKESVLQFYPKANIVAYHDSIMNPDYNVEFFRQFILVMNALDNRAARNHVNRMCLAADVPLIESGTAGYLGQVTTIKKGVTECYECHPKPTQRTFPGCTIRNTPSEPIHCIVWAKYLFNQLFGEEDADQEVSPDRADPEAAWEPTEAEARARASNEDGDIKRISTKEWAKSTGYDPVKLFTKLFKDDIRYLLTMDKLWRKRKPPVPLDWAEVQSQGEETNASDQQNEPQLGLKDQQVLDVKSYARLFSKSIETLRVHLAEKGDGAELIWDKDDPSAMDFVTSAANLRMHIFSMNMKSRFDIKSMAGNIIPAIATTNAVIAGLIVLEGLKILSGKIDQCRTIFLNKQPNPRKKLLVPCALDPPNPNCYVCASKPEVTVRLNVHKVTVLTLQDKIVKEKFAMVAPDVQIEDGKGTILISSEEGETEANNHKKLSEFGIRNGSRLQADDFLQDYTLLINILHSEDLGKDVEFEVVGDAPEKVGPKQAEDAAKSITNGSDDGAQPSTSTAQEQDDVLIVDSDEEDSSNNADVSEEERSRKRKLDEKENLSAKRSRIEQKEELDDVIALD

Target: SAE1 (Homo sapiens (Human), UniProt Q9UBE0+Q9UBT2)
Assay: SAE High Throughput Biochemical Assay (HTRF), 15 min preincubation
Conditions: read-out: 15 min preincubation HTRF IC50 (μM) Ave, SAE1 12.5 nM, ATP 100 μM
Procedure: Assay buffer was prepared [50 mM HEPES, pH 7.5, 0.1% BSA and 10 mM MgCl2] as was the Stop Buffer [100 mM HEPES, pH 7.5, 0.05% Tween20, and 410 mM KF]. The 2×Reaction Buffer [80 nM SUMO-GST, 80 nM UBC9-His, 200 μM ATP and diluted in Assay Buffer] and Antibody Reaction Mix [13.34 nM anti-GSTXL665, 1.66 nM anti-His EuK and Diluted in Stop Buffer] were also prepared. Compounds were dissolved at 200×in DMSO in a 384-well plate. Serial dilutions were performed in DMSO for each compound, and then each concentration was diluted another 50-fold in Assay Buffer, to 4× the final concentration. 2.5 μL of each concentration was transferred into its own well in a 384-well plate. SAE1 was then diluted to 4× in Assay Buffer, and 2.5 μL of 4×SAE1 was mixed into each compound-containing well. After incubating for 15 minutes at RT, 5 μL of 2×Reaction Buffer was mixed into every well. Then after another 45 minutes at RT, 10 μL of Antibody Reaction Mix was added and mixed into every well. This plate was then read on an HTRF-compatible plate reader after 2 hours at RT, and again after sitting at RT overnight. [Final Component Concentrations: SAE1: 12.5 nM; SUMO-GST: 40 nM; UBC9-His: 40 nM; Anti-GST-XL665: 6.67 nM; Anti-His-EuK: 0.83 nM; and ATP: 100 μM] Alternatively, the compounds are tested at a single concentration of 25 micromolar and the percent of control is measured.

CCn1cc(-c2c(C#N)cccc2C2CN(C(=O)/C=C/CN(C)C)Cc3sc(C#N)cc32)c(C(F)(F)F)n1 (stereo not shown) [Example 185, (E)-3-(6-(4-(Dimethylamino)but-2-enoyl)-2-isocyano-4,5,6,7-tetrahydrothieno[2,3-c]pyridin-4-yl)-2-(1-ethyl-3-(trifluoromethyl)-1 H-pyrazol-4-yl)benzonitrile]
IC50: 5.86 µM
